Article PMC8423818
Results are given in words; binding and its absence hold for the method and conditions named. Binding seen in cells or lysates may run through a third protein. Here binding means that the protein was enriched with, or labelled near, the bait; the list need not be complete. For some assays here: A no says only that the protein was not detected with the bait.

Sequences of proteins named here, by UniProt entry; tags and fusion partners are left off. A change or cut given only in a name is not applied to a line headed by its entry.
UniProt P60953: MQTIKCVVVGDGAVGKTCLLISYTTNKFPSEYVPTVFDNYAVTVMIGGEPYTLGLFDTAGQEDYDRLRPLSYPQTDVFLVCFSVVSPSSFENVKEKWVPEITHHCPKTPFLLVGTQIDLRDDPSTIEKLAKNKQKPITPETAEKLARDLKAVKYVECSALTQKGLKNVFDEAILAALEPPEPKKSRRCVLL
UniProt O96013: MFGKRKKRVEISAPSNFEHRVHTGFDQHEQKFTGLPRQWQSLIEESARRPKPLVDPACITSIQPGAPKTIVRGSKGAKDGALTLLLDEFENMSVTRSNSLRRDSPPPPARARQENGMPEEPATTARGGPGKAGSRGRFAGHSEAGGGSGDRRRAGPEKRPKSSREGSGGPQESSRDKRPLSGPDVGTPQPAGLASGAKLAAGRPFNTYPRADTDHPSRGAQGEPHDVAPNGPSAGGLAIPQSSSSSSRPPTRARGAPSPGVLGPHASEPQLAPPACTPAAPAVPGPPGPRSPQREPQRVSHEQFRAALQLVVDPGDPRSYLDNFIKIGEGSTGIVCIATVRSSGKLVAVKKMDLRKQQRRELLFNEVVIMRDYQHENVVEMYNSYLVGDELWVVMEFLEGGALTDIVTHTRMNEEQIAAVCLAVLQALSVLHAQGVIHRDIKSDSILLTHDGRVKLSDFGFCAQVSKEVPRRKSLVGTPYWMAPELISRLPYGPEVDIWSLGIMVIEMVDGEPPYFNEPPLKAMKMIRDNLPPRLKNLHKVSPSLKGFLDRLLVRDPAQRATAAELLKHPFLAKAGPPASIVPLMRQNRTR
UniProt P12830: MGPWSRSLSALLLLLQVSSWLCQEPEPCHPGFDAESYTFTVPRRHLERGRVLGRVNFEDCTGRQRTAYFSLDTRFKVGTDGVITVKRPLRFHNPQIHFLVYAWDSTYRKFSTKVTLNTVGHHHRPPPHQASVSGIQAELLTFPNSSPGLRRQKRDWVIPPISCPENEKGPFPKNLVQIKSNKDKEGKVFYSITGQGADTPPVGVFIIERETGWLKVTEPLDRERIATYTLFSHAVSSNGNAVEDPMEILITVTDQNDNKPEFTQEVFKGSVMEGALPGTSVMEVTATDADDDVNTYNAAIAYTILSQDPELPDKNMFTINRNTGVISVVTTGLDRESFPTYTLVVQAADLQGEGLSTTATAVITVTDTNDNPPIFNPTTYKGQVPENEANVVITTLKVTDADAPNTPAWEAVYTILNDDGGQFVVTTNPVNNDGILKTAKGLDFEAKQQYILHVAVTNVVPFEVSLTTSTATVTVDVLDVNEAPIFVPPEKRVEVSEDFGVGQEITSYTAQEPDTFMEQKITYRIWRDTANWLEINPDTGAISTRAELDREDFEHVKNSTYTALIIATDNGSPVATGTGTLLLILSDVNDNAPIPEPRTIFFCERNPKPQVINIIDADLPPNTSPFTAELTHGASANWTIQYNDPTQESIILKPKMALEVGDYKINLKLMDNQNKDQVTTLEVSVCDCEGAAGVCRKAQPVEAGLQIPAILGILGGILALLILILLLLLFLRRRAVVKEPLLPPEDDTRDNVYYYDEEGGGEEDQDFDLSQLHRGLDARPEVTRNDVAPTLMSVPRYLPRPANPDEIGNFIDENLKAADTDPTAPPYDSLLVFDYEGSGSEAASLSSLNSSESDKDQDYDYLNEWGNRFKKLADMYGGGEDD
UniProt P19022: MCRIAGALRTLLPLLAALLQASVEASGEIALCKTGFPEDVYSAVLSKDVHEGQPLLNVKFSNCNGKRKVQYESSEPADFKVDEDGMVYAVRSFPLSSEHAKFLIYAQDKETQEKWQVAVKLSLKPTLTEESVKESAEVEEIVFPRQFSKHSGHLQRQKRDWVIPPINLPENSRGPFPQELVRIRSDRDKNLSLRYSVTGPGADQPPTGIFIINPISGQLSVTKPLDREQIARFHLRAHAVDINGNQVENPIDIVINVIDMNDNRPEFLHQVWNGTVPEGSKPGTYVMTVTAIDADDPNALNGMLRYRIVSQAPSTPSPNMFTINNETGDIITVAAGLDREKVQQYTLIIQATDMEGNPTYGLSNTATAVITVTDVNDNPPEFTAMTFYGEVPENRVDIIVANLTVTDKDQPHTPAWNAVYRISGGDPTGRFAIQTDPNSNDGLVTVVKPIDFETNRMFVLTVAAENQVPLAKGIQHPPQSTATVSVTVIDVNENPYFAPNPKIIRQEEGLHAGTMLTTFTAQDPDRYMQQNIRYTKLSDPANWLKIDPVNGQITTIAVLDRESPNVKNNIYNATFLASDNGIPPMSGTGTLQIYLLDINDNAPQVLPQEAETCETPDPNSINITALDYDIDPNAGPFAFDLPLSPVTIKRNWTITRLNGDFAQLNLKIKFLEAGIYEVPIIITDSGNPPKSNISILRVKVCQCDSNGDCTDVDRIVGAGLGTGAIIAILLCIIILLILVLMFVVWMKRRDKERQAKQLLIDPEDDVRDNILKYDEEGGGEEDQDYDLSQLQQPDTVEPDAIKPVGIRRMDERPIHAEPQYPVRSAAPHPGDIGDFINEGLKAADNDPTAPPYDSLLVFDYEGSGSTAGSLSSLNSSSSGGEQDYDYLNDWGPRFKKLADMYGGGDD
UniProt P35222: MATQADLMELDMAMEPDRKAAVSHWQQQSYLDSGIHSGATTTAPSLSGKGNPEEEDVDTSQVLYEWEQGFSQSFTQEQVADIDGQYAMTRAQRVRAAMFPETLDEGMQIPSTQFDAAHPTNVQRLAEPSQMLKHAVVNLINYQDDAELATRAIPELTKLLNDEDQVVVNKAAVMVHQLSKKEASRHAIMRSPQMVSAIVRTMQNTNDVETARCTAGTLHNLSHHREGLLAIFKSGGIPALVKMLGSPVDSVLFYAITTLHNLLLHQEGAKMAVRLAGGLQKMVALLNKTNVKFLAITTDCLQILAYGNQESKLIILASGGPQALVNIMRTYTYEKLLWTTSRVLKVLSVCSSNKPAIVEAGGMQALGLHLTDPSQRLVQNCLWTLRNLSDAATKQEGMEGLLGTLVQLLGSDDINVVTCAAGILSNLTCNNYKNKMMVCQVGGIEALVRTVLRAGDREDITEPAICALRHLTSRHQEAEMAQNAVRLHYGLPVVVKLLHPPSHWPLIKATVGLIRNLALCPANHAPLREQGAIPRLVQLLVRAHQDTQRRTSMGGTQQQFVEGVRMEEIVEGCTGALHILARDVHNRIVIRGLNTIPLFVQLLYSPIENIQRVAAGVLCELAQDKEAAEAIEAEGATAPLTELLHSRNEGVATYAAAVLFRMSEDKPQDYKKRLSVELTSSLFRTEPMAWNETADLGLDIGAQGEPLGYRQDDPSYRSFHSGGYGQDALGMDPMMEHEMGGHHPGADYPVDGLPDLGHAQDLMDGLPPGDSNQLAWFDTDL
UniProt Q9NQU5: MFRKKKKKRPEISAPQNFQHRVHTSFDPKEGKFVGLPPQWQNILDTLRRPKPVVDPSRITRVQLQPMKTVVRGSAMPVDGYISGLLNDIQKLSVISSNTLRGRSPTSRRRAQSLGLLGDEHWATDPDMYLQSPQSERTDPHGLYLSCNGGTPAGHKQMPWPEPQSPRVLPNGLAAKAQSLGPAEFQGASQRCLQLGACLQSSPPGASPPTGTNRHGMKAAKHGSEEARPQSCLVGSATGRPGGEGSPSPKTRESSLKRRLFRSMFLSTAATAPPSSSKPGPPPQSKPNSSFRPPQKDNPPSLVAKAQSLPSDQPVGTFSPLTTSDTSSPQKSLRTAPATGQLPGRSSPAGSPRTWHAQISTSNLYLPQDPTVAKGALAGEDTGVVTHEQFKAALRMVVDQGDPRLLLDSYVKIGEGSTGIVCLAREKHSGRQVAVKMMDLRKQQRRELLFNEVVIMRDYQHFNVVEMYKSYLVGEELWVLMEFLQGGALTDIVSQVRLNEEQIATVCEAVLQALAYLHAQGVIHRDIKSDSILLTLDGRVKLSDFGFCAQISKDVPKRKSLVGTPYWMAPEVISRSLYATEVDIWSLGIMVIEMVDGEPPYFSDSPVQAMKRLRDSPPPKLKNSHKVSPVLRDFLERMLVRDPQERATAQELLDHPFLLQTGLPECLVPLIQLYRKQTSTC

Experiments:
[1] = target: GFP-BirA-Cdc42 (wild type) (UniProt P60953); experiment: proximity labelling; SILAC BioID in U2OS cell lines expressing GFP-BirA-Cdc42 (wild type); hits: SILAC enrichment >3
[2] = target: PAK4-BirA*-GFP (human) (UniProt O96013); experiment: proximity labelling; SILAC BioID in stable U2OS cells expressing PAK4-BirA*-GFP against GFP-BirA* control cells; 100 μM biotin for 5 h; biotinylated proteins captured on Neutravidin beads, washed with 1% SDS, identified by LC-MS/MS; hits: SILAC ratio >3.0, two independent experiments
[3] = target: PAK4-BirA*-GFP (human) (UniProt O96013); experiment: affinity purification with mass spectrometry; GFP-trap Sepharose co-immunoprecipitation of PAK4-BirA-GFP from non-ionic detergent solubilized U2OS lysates, SILAC normalization to GFP-BirA control

| binding [1] | binding [2] | binding [3] | Substance |
| --- | --- | --- | --- |
| no binding | no binding |  | E-cadherin (from UniProt P12830) |
|  | no binding |  | N-cadherin (from UniProt P19022) |
|  | no binding |  | β-catenin (from UniProt P35222 1-781) |
|  |  | binds | PAK6 (from UniProt Q9NQU5 1-681) (enzyme) |
